Measured values published in PMC7696408.
No constants are given. Whether binding was seen depends on the method and setting. In cells and extracts the contact can be indirect. A yes stands for co-enrichment or nearness to the bait. Other partners may have been found. No binding means not detected with the bait.

Chains of the proteins cited; added tags and fusions are not shown. Residues count along the entry.
UniProt P31749: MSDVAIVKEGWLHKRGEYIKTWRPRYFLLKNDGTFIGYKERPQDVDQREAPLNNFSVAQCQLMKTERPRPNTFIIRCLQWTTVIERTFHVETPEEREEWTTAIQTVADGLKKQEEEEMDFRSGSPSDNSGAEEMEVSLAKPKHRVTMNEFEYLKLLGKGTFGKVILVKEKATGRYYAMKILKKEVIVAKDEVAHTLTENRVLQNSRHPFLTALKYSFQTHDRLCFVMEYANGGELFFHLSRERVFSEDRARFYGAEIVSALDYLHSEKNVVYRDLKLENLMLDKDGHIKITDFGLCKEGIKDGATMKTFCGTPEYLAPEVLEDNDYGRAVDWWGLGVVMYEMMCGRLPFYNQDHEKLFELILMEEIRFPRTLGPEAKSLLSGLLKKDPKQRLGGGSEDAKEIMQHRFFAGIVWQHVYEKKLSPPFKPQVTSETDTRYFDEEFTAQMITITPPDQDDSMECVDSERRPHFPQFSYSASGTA
UniProt Q9NZZ3: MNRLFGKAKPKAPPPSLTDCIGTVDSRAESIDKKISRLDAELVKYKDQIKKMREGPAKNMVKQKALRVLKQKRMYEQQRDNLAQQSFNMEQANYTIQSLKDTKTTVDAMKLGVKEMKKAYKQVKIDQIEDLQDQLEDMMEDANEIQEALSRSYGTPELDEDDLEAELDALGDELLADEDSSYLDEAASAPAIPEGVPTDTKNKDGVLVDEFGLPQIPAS
UniProt Q6P9H4: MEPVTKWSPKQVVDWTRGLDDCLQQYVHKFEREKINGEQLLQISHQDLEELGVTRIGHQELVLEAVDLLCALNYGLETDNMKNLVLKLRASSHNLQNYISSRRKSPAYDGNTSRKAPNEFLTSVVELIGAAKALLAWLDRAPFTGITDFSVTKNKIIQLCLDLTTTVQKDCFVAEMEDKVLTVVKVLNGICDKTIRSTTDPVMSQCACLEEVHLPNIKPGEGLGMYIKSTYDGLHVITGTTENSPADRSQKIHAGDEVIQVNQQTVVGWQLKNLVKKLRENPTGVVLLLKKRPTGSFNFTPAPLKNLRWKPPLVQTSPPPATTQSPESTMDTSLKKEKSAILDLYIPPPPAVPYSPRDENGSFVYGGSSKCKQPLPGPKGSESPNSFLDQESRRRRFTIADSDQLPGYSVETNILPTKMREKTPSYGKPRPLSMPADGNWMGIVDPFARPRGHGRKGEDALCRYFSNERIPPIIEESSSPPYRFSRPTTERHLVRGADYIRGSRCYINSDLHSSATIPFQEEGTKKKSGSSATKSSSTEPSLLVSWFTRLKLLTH
UniProt P27361: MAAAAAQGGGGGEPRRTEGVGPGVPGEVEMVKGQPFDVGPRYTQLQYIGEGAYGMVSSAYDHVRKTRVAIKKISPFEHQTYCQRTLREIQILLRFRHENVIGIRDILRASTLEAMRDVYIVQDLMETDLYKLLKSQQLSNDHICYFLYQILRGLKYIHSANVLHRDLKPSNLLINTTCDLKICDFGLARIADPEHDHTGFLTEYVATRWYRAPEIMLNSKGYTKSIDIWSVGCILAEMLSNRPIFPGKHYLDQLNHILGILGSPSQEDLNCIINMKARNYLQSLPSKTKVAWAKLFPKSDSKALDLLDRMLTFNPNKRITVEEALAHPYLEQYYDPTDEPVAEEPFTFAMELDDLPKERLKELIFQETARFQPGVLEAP
UniProt P10114: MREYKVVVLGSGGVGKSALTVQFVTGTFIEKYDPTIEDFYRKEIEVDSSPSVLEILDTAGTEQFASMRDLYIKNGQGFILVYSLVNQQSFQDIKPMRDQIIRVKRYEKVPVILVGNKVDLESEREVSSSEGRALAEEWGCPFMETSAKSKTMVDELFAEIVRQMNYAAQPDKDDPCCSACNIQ
UniProt Q6NXT4: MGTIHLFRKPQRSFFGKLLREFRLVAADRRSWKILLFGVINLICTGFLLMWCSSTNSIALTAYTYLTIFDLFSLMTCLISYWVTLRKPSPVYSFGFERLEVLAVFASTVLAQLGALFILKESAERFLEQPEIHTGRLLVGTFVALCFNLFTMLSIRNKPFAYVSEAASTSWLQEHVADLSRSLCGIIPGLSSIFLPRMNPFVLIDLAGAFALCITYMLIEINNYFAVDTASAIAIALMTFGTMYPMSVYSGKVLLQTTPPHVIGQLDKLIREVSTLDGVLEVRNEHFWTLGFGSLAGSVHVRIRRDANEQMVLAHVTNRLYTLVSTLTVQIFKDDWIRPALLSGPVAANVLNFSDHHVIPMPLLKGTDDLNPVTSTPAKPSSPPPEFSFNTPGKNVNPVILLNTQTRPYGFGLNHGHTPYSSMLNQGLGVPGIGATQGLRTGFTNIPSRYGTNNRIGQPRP
UniProt Q8IUH5: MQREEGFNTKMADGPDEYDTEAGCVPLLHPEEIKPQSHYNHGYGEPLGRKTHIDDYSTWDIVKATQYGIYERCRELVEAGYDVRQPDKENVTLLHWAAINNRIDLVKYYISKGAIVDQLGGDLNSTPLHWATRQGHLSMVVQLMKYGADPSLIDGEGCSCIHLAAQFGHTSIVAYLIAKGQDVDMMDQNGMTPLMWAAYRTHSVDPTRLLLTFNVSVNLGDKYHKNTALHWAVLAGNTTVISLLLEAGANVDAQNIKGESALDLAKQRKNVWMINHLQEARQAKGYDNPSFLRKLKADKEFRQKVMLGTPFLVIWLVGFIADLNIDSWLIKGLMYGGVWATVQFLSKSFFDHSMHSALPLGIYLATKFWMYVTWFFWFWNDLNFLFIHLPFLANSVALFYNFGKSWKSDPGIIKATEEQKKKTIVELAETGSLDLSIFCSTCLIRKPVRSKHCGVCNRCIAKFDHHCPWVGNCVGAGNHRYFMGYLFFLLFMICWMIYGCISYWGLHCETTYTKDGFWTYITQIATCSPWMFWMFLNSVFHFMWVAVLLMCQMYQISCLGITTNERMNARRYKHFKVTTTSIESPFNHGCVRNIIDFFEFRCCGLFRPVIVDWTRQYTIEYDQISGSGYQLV
UniProt P35613, residues 22-385: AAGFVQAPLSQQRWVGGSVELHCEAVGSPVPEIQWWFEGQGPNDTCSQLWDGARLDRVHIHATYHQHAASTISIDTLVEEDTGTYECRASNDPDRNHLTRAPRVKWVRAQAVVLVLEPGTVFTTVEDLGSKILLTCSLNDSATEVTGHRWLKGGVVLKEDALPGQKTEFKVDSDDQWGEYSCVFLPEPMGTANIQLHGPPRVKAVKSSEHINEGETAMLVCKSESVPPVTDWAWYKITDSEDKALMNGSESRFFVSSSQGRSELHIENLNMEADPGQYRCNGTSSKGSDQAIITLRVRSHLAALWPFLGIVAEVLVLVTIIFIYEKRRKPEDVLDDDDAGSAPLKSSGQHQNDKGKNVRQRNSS
UniProt Q9UL25: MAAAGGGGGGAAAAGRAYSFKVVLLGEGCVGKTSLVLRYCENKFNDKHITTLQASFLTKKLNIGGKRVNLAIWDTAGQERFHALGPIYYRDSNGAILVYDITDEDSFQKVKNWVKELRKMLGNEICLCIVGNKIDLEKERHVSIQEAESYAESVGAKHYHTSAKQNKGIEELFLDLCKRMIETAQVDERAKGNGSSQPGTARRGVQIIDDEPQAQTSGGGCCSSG
UniProt Q6GYQ0: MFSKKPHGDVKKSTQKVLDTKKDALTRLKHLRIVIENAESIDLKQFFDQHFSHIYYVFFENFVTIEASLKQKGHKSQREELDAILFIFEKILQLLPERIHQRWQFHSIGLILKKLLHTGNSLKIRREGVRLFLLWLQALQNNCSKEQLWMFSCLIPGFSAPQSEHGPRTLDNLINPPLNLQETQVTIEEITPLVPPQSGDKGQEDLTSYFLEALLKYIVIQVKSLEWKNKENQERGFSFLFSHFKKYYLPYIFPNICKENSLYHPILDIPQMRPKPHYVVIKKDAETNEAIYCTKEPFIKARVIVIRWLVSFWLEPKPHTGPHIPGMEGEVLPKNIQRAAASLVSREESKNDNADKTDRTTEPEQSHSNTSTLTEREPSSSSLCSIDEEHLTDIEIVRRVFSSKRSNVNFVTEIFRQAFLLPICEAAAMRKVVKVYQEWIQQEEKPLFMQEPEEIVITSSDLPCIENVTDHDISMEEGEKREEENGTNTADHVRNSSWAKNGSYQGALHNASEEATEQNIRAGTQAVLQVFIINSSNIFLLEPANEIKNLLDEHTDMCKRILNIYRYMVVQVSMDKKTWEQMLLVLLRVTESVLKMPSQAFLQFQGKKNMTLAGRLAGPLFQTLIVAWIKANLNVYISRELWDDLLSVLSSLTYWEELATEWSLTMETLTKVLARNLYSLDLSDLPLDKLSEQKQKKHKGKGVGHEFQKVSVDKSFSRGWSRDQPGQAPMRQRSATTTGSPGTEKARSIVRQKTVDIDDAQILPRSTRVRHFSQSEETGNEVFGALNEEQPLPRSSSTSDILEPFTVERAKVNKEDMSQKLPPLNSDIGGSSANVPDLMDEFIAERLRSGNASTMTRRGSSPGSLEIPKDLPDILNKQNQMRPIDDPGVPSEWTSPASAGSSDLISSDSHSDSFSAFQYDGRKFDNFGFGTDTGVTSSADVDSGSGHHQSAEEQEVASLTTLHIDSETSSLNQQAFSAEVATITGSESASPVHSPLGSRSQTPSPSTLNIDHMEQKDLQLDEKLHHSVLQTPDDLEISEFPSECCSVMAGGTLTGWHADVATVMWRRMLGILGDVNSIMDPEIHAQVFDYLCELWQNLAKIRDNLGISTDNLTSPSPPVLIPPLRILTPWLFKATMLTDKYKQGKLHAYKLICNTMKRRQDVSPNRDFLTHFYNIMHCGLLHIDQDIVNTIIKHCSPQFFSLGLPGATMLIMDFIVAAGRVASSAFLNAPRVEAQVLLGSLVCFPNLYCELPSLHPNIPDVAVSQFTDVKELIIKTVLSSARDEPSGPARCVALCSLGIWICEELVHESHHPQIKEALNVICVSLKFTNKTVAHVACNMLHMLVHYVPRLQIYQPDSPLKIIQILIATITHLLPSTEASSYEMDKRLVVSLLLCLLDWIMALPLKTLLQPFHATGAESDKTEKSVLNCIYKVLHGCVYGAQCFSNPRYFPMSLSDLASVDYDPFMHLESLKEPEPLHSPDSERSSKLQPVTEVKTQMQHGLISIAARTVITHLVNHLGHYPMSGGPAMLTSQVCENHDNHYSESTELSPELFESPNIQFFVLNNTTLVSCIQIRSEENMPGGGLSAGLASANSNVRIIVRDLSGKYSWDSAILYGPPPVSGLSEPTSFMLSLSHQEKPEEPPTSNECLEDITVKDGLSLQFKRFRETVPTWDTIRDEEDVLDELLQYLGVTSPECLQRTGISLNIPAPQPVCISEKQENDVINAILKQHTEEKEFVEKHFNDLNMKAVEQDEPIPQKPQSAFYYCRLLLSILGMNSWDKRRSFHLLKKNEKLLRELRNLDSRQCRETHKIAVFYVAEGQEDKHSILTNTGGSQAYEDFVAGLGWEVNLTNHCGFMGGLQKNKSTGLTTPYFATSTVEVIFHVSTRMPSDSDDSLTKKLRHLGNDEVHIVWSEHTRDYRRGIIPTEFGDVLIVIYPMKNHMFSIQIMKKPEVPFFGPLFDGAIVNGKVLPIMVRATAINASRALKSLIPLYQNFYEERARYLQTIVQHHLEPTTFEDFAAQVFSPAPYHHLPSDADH
UniProt Q96K37: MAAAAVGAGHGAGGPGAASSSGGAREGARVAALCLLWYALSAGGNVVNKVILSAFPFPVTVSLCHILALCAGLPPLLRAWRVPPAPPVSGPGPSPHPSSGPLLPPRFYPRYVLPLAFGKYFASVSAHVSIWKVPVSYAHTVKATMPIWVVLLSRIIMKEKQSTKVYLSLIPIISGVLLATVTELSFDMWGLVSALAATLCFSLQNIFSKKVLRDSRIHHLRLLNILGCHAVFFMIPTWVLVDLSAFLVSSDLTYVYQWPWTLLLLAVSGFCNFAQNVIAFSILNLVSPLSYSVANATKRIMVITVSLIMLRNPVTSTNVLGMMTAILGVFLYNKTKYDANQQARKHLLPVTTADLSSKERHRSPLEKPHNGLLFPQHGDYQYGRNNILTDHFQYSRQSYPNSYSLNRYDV
UniProt Q9UMY4: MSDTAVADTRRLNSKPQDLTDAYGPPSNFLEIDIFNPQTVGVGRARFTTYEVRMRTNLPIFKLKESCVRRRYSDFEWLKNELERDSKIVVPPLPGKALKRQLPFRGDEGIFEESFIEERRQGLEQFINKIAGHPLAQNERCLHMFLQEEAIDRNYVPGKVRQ
UniProt P11166: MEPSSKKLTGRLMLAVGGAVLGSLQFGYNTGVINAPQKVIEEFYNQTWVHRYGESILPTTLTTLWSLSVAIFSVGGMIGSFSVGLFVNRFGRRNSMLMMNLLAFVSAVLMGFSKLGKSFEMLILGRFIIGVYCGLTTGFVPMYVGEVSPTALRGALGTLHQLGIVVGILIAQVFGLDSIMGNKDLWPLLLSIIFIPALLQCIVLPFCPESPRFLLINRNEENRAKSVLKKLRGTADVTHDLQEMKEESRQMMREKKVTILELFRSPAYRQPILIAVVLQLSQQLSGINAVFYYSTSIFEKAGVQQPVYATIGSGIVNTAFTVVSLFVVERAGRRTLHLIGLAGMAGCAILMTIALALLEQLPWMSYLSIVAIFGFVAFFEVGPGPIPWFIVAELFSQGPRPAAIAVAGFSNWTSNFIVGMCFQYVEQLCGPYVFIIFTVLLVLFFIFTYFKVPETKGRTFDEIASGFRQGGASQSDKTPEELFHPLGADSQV

Key:
Assay in all cases: proximity labelling; BioID: FlagBirA*-RAS bait in Flp-In T-REx 293 cells, 1 µg/mL tetracycline and 50 µM biotin for 24 h; modified RIPA lysis, Streptavidin Sepharose capture, trypsin, LC-MS/MS; hits at SAINT score ≥ 0.75; labelling radius ~10 nm
FlagBirA*-KRAS4B (human) = FlagBirA*-KRAS4B (human) (UniProt P01116)
FlagBirA*-NRAS (human) = FlagBirA*-NRAS (human) (UniProt P01111)
FlagBirA*-HRAS (human) = FlagBirA*-HRAS (human) (UniProt P01112)

binding (FlagBirA*-KRAS4B (human)) | binding (FlagBirA*-NRAS (human)) | binding (FlagBirA*-HRAS (human)) | Substance
binds | – | – | AKT1 (from UniProt P31749 1-480)
– | binds | – | AKT2 (from UniProt P31751 1-481)
– | – | binds | CHMP5 (from UniProt Q9NZZ3 1-219)
– | binds | – | CNKSR3 (from UniProt Q6P9H4 1-555)
– | – | binds | DYNLL1 (from UniProt P63167 1-89)
no binding | no binding | – | MAPK1 (from UniProt P28482 1-360)
no binding | no binding | no binding | MAPK3 (from UniProt P27361 1-379)
binds | – | – | PLXNB2 (from UniProt O15031 20-1838)
– | – | binds | RAP2A (from UniProt P10114 1-183)
– | – | binds | SLC9A3R1 (from UniProt O14745 1-358)
– | binds | – | SLC25A1 (from UniProt P53007 14-311)
– | binds | – | SLC30A6 (from UniProt Q6NXT4 1-461)
– | – | binds | SNX3 (from UniProt O60493 1-162)
– | – | binds | STXBP1 (from UniProt P61764 1-594)
– | – | binds | TC2N (from UniProt Q8N9U0 1-490)
– | binds | – | ZDHHC17 (from UniProt Q8IUH5 1-632)
– | – | binds | radixin (from UniProt P35241 1-583)

Continued, substance first:

Substance | binding (FlagBirA*-KRAS4B (human)) | binding (FlagBirA*-NRAS (human)) | binding (FlagBirA*-HRAS (human))
ANK3 (from UniProt Q12955 1-4377) | – | binds | –
ANXA2 (from UniProt P07355 1-339) | – | – | binds
B2M (from UniProt P61769 21-119) | – | – | binds
BSG (from UniProt P35613 22-385) | – | – | binds
BTN3A1 (from UniProt O00481 30-513) | – | – | binds
RAB11FIP2 (from UniProt Q7L804 1-512) | – | – | binds
RAB21 (from UniProt Q9UL25 1-225) | – | – | binds
RALGAPA1 (from UniProt Q6GYQ0 1-2036) | binds | – | –
SEC61A1 (from UniProt P61619 1-476) | – | – | binds
SHKBP1 (from UniProt Q8TBC3 1-707) | – | binds | –
SLC30A5 (from UniProt Q8TAD4 1-765) | – | binds | –
SLC35E1 (from UniProt Q96K37 1-410) | – | binds | –
SNX12 (from UniProt Q9UMY4 1-162) | – | – | binds
VAMP2 (from UniProt P63027 1-116) | – | – | binds
glucose transporter 1 (from UniProt P11166 1-492) | – | binds | –
